In paper doi:10.1101/2022.10.20.512913:
No constants are given. Whether binding was seen depends on the method and setting. Binding seen in cells or lysates may run through a third protein. Some entries that bind do so weakly or less than the wild type. For some assays here: Sequences can lack the tags named with a protein.

By UniProt entry, the sequences of proteins in these tests, tags left out.
UniProt Q8VZQ4: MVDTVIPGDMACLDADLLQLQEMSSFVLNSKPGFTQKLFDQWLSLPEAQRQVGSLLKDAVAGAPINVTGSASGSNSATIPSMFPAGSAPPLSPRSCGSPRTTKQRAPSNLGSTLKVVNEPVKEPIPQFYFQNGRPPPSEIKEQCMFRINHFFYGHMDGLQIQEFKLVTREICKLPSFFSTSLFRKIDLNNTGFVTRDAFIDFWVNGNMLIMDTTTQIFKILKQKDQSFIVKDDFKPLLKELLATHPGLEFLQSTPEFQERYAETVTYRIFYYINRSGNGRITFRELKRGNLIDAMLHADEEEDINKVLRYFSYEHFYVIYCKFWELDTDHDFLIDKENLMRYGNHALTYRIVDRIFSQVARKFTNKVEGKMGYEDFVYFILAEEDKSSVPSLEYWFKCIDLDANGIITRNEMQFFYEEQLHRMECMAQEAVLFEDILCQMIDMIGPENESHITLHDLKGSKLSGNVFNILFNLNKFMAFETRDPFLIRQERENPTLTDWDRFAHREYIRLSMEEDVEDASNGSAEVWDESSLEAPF

Tests used:
[1] = biological target: T1, FLOT2-GFP (Arabidopsis), Q4V3D6; experiment: co-IP; settings: remark: other sources report otherwise
T1 chain: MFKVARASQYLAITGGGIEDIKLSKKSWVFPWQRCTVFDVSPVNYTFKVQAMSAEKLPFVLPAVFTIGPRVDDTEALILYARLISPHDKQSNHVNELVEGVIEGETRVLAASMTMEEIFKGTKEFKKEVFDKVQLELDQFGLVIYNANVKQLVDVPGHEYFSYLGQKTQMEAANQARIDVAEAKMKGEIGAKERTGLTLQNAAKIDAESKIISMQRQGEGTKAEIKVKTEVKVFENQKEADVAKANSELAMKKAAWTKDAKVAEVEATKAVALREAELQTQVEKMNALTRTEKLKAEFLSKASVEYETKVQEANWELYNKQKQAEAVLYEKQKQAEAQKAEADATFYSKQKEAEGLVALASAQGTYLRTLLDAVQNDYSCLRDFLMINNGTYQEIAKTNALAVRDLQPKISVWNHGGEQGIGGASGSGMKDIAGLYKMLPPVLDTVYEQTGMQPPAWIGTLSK

[2] = biological target: PP2A-B’’γ-YFP (Arabidopsis) (UniProt Q8VZQ4); experiment: co-IP

B1: PIP2;1-mCherry, P43286 1-287 (protein)
chain: MAKDVEAVPGEGFQTRDYQDPPPAPFIDGAELKKWSFYRAVIAEFVATLLFLYITVLTVIGYKIQSDTDAGGVDCGGVGILGIAWAFGGMIFILVYCTAGISGGHINPAVTFGLFLARKVSLPRALLYIIAQCLGAICGVGFVKAFQSSYYTRYGGGANSLADGYSTGTGLAAEIIGTFVLVYTVFSATDPKRSARDSHVPVLAPLPIGFAVFMVHLATIPITGTGINPARSFGAAVIYNKSKPWDDHWIFWVGPFIGAAIAAFYHQFVLRASGSKSLGSFRSAANV
[1]
  binding: binds

B2: PIP2;1-mCherry (protein, UniProt P43286 1-287)
chain: B1 chain
[2]
  binding: binds
